No constants are given. Whether binding was seen depends on the method and setting. Binding calls can cover weak binding; strength is not graded here. Sequences can lack the tags named with a protein. For some assays here: In cells and extracts the contact can be indirect.
Experiments:
[1] = target: T1, SPE-39-FLAG (yeast two-hybrid vector) (C. elegans) (UniProt Q23288); experiment: pull-down
T1 sequence: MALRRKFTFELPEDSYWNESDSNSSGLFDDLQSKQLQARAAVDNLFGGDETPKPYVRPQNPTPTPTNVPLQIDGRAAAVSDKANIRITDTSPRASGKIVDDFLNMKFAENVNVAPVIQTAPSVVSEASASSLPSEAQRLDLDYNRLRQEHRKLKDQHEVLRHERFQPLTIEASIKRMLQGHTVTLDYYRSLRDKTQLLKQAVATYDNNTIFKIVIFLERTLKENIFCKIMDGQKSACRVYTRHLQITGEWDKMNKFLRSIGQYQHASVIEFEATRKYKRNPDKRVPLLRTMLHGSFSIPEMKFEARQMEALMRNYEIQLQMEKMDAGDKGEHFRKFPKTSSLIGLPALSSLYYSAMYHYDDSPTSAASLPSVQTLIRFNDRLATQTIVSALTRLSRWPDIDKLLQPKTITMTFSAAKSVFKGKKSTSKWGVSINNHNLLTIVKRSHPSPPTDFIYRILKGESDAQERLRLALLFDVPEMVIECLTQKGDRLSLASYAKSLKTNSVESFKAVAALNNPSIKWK

By UniProt entry, the sequences of proteins in these tests, tags left out. Where a name states a change or a piece, a line headed by the entry shows the natural chain unless it says otherwise.
UniProt Q9GYJ9: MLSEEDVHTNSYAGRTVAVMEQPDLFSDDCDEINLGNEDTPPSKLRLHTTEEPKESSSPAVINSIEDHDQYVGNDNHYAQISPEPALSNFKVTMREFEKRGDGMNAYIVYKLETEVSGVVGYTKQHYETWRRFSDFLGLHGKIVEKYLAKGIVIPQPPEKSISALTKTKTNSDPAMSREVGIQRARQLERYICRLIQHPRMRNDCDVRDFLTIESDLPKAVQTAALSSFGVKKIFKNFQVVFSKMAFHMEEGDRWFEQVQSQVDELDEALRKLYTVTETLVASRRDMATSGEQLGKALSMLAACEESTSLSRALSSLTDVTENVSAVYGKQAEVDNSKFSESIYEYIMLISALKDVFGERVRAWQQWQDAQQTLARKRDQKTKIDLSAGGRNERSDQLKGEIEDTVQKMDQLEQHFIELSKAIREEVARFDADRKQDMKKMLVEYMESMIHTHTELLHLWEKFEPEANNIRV

[2] = target: T1, SPE-39-FLAG (yeast two-hybrid vector) (C. elegans); experiment: two-hybrid
SPE-39-GST (C. elegans) = target: T2, SPE-39-GST (C. elegans) (UniProt Q23288); experiment: pull-down
T2 sequence: T1 sequence

| binding [1] | binding [2] | binding (SPE-39-GST (C. elegans)) | Substance |
| --- | --- | --- | --- |
| binds | binds | – | SNX-1 (yeast two-hybrid vector) (from UniProt Q9GYJ9) |
| binds | binds | – | VPS-45 (yeast two-hybrid vector) (from UniProt H2KYN0) |
| – | – | binds | His-VPS-45 (from UniProt H2KYN0) |

Source: publication doi:10.1101/500082
